Laboratory results taken from paper PMC7181755.
These are yes or no findings as the source states them, for the method shown. In cells and extracts the contact can be indirect. Some results given as binding are weak or reduced against the parent protein; the word gives no strength. Where a sequence is shown, tags or fusion partners need not be part of it.

Sequences of proteins named here, by UniProt entry; tags and fusion partners are left off.
UniProt Q9UIJ5: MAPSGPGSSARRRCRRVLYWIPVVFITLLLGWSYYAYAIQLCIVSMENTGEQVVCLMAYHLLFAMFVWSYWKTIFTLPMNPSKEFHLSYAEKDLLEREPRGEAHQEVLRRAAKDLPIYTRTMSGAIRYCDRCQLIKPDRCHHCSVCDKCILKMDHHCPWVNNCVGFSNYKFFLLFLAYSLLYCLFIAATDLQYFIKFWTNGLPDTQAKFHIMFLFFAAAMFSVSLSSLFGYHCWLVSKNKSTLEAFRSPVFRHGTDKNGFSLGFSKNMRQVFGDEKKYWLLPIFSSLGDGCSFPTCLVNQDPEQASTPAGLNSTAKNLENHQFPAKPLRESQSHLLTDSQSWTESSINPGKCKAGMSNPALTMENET

Molecular target: T1, 3×Flag-tagged GSDME (UniProt O60443)
T1 sequence: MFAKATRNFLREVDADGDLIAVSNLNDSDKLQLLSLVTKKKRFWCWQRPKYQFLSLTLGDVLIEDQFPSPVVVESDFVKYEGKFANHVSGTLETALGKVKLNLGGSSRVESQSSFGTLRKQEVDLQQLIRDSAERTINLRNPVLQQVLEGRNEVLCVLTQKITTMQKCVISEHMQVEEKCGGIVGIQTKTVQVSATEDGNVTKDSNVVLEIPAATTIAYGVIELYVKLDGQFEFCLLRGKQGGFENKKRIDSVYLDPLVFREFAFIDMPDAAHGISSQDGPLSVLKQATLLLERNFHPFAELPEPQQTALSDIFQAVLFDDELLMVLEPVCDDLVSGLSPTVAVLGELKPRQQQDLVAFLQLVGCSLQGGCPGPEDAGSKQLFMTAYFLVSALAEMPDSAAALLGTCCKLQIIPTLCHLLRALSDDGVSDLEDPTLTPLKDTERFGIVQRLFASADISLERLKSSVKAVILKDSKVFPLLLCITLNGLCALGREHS
Test: co-IP; 3×Flag-GSDME and HA-tagged ZDHHCs co-transfected into 293T cells; precipitation with anti-Flag antibody (Flag magnetic beads), 4 °C overnight; 20 mM Tris pH 7.5, 150 mM NaCl, 1% Triton X-100; western blot

binding: binds
Substance: HA-tagged ZDHHC2 (from UniProt Q9UIJ5 1-367) (enzyme)
